This is an account of results in PubChem BioAssay AID493014 (National Center for Advancing Translational Sciences (NCATS), 2011).

The other results are listed elsewhere or left out. Shown are side measurements of this screen, not its main read-out; they come without a call. Compounds called inactive in the main read-out are mostly missing here. The note in brackets gives the kind of curve behind each potency; many fits are weak.

This test is described as follows: qHTS Assay to Find Inhibitors of Chronic Active B-Cell Receptor Signaling. To be noted: ABC-DLBCL IkBa-CBG/CBR reporter, luminescence ratio (green luciferase fused to IkBa over red control in TMD8 lymphoma cells), 4 h. The gist of the method: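 Doxycycline induced both beetle luciferases in TMD8 lymphoma cells; IKK-driven degradation limits the IkappaBalpha-fused green signal, while red luminescence normalises for cell number and nonspecific effects. Compounds tested up to 46 uM, 4 hrs.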

[1] abbreviates: measured here: CBR red luminescence, cell number.
Setting [2] is: measured here: IkBa-CBG green luminescence.

Consider `COc1ccccc1C(=O)Nc1ccc2c(c1)OCO2`, for which, under setting [1], the AC50 was 25.9 µM [falling, single point]. Turning to `Cc1ccc(C(=O)NCCN2C3=NC[C@@H](Cc4ccccc4)N3C[C@H]2Cc2ccc(O)cc2)cc1Br`, under setting [1], the half-maximal activity concentration (AC50) is 35.5 µM [falling, single point]. The same measure, in the same setting: under `CCSc1ccc2nnc(-c3ccc(F)cc3)n2n1` stands 14.6 µM [falling, single point]; under `COc1ccc2c(c1OC)C(=O)N1N=C(c3ccc(O)cc3)CC21` (stereo not given), 5.8 µM [falling, partial curve]. Same read-out and setting: under `COc1cccc(C(=O)NC(=O)Nc2cc(C)on2)c1` stands 10 µM [falling, partial curve, poor fit].

Consider `COc1cc(OC)c(OC)cc1/C=C/C(=O)c1ccc(NS(=O)(=O)c2ccc(C)cc2)cc1`, for which the AC50 is 16.4 µM [falling, single point] under setting [1] and 23.1 µM [falling, partial curve, poor fit] under setting [2]. For the molecule `CCCCOc1ccc(/C(O)=C2/C(=O)C(=O)N(CCN(C)C)C2c2ccc(O)c(OC)c2)cc1` (stereo not given), the AC50 under setting [1] was 14.1 µM [falling, partial curve, poor fit]. On the same count and under the same terms, the same measure for `COc1ccccc1[C@]1(C)ON(c2ccccc2C(F)(F)F)C1=O`: 13 µM [falling, single point]. Still for that read-out and setting: under `Cc1ccc(S(=O)(=O)Nc2ccc(O)c3ccccc23)c(C)c1` stands 31.6 µM [falling, single point]; under `Cc1c(Nc2cc(N3CCOCC3)c3nonc3c2[N+](=O)[O-])c(=O)n(-c2ccccc2)n1C`, 22.4 µM [rising, single point].

As for `O=C1CCCN1CCCN=c1c([N+](=O)[O-])nn(-c2ccc(Cl)cc2)n1O`, the AC50 under setting [1] was 3.55 µM [rising, full curve, poor fit].

As to `COC(=O)[C@@]12CCCN1[C@H](c1ccc(-c3ccc(Cl)c(Cl)c3)cc1)[C@H]1C(=O)N(C)C(=O)[C@H]12`, the AC50 under setting [1] was 29.1 µM [falling, single point]. Still for that read-out and setting: under `O=C(/C=C(\c1ccc(Cl)cc1)n1cncn1)c1ccc(Cl)cc1` stands 0.58 µM [rising, full curve]; under `Cc1cc(C)c(C)c(S(=O)(=O)NC(C(=O)O)C(C)C)c1C` (stereo not given), 0.316 µM [rising, full curve, poor fit]; under `O=C(N/N=C/C(Cl)=C/c1ccccc1)c1ccc2c(c1)OCO2`, 5.17 µM [falling, partial curve]. Regarding `COC(=O)N1C(=O)[C@@](c2ccccc2)(C(C)C)N1C(=O)OC`, under setting [1], the AC50 is 2.24 µM [falling, full curve].

On to `COc1ccccc1-n1c(N)c(C(=O)NCC2CCCO2)c2nc3ccccc3nc21` (stereo not given), for which the AC50 under setting [1] was 16.4 µM [falling, partial curve]. On to `COCc1cc(CN2CCN(C)CC2)c(O)c2ncccc12`, for which the AC50 reads like this: under setting [1], 0.184 µM [rising, full curve, poor fit]; under setting [2], 20.6 µM [falling, single point]. For the molecule `O=C(NCCc1ccco1)c1cc(COc2cccc(C(F)(F)F)c2)on1`, under setting [1], the AC50 was 35.5 µM [falling, single point].

Turning to `CCOc1ccc(N2CC(=O)SC2=S)cc1`, the AC50 runs as follows: under setting [1], 6.31 µM [rising, single point]; under setting [2], 8.91 µM [falling, partial curve, poor fit].

Take `C/C(=N\NC(=O)COc1ccccc1-c1ccccc1)c1cccnc1`: the AC50 runs as follows: under setting [1], 11.2 µM [rising, partial curve, poor fit]; under setting [2], 25.1 µM [falling, single point]. Regarding `CC(=O)c1ccc(NC(=O)c2noc3c2CCC3)cc1`, the AC50 under setting [1] is 15.8 µM [falling, partial curve, poor fit]. In the case of `COC(=O)c1ccccc1NC(=O)CSc1nnc(Cc2ccc(Cl)cc2)o1`, under setting [1], the AC50 is 2.91 µM [rising, full curve, poor fit]. In the case of `Cc1cccc(-n2nnc(C(=O)NCc3ccccc3)c2N)c1`, under setting [1], the concentration at half-maximal activity (AC50) was 29.1 µM [falling, single point].

Turning to `CC(CC(=O)Nc1cccnc1)c1ccccc1` (stereo not given), under setting [1], the AC50 was 7.94 µM [rising, partial curve, poor fit]. Consider `COc1cc(/C=C/C(=O)OCC(=O)Nc2sc3c(c2C#N)CCC(C)C3)ccc1OCC#N` (stereo not given), for which the AC50 under setting [1] was 1.78 µM [rising, full curve, poor fit].

As for `Cc1ccc(C(=O)N2CCC(n3nccc3NC(=O)c3ccccc3C)CC2)cn1`, the AC50 under setting [1] was 12.6 µM [rising, single point]. On the same count and under the same terms, the same measure for `Cc1ccc(C)c(N2CCN(C(=O)C3CCN(c4nc(C)cc(C)n4)CC3)CC2)c1`: 32.6 µM [falling, single point]; for `O=[N+]([O-])c1ccc(/C=C2\CCC(C3=CCCC3)=C2N2CCOCC2)cc1`: 16.4 µM [falling, partial curve]; for `C#CCOCCOCCOCCNc1nc(N2CCN(C(=O)CCCCCCCCCCNC(=O)Cn3cc(CCCCCN)nn3)CC2)nc(N2CCN(C(=O)CCCCCCCCCCNC(=O)[C@@H](CCC(=O)O)n3cc(CCCCCN)nn3)CC2)n1`: 13 µM [rising, partial curve, poor fit]. On the same count and under the same terms, under `CC1=C(C(=O)OCC(C)C)C(c2ccsc2)NC(=O)N1` (stereo not given) stands 2.91 µM [falling, full curve]; under `O=C(NCCc1ccccc1)C1CCN(Cc2cc3ccccc3n2Cc2ccccc2)CC1`, 11.2 µM [falling, single point]; under `O=[N+]([O-])c1ccccc1Nc1c2ccccc2nc2ccccc12`, 20 µM [rising, single point].

As to `O=C(/C=C/Sc1ccccc1)c1ccc(Cl)cc1`, the AC50 reads like this: under setting [1], 16.4 µM [falling, partial curve]; under setting [2], 14.6 µM [falling, partial curve, poor fit].

Turning to `OCCc1c[nH]c2ccc(C(F)(F)F)cc12`, under setting [1], the AC50 was 14.1 µM [rising, partial curve, poor fit].

With `C#CCN1C(=O)S/C(=C/C=C/c2ccc(N(C)C)cc2)C1=O`, the AC50 under setting [1] was 9.2 µM [rising, partial curve, poor fit]. The same measure, in the same setting: the same measure for `CCSc1ccccc1C(=O)N1CCN(Cc2ccc3c(c2)OCO3)CC1`: 18.4 µM [falling, partial curve, poor fit]; for `CCc1sc(C(=O)N2CCN(CC(=O)Nc3cccc(F)c3)CC2)cc1C`: 0.651 µM [rising, partial curve, poor fit]; for `NS(=O)(=O)c1cccc(NC(=O)COC(=O)c2ccccc2SCC(=O)N2CCCC2)c1`: 8.2 µM [rising, partial curve, poor fit]. On the same count and under the same terms, under `Cc1ccc(S(=O)(=O)N2CCOCC2)cc1C(=O)N1CCc2ccccc21` stands 23.1 µM [rising, single point].

Turning to `CCOc1ccc(CNC(=O)CCCC(=O)n2nc(C)c3ccccc32)cc1`, the AC50 under setting [1] was 3.16 µM [falling, partial curve]. The same measure, in the same setting: the same measure for `Nc1ccc2c(c1)N=[N+]([O-])c1cc(N)ccc1C2`: 35.5 µM [rising, single point]; for `COc1ccccc1NC(=O)N1CCc2[nH]c3ccc(F)cc3c2C1`: 4.47 µM [falling, full curve]. Still for that read-out and setting: the same measure for `COc1cc(S(=O)(=O)N2CCOCC2)ccc1NC(=O)COC(=O)/C=C/c1cc(OC)c(OC)c(OC)c1`: 23.1 µM [rising, single point]; for `O=C(N/N=C/c1ccc(COc2ccc(Br)cc2)o1)c1ccc2c(c1)OCO2`: 10 µM [falling, partial curve, poor fit]; for `C=CCc1ccc(OCCOCCNCCOC)c(OC)c1`: 4.47 µM [falling, full curve, poor fit].

Regarding `O=C(COC(=O)c1cc(Br)ccc1O)Nc1cc(S(=O)(=O)N2CCCC2)ccc1Cl`, the AC50 under setting [1] was 25.1 µM [falling, single point]. Same read-out and setting: under `O=C(Nc1ccccc1)C1=C[C@H](c2ccc3c(c2)OCO3)C[C@H](OCCCCO)O1` stands 6.31 µM [falling, partial curve]; under `CCCOc1ccccc1/C=C1\SC(N)=NC1=O`, 11.2 µM [rising, partial curve, poor fit]. Still for that read-out and setting: the same measure for `CCOC(=O)C1CCCN(c2c(N3CCc4ccccc4C3)c(=O)c2=O)C1` (stereo not given): 9.2 µM [rising, single point]; for `CCN(CC)C(=O)c1sc(NC(=O)c2ccc3c(c2)OCO3)c(C#N)c1C`: 0.092 µM [falling, full curve, poor fit].

Regarding `Cc1ccc2nc(NNC(=O)c3ccc(S(=O)(=O)N4CCc5ccccc5C4)cc3)sc2c1`, the AC50 under setting [1] is 29.1 µM [rising, single point]. The same measure, in the same setting: the same measure for `COc1ccccc1NC1=C(N2CCCCC2)C(=O)c2ccccc2C1=O`: 25.9 µM [falling, partial curve, poor fit]; for `CCOC(=O)C1=C(COC(=O)c2ccc3ccccc3c2O)NC(=O)NC1C` (stereo not given): 29.1 µM [falling, single point]; for `CS(=O)(=O)N1CCN(c2ccccc2NC(=O)Cc2ccc(Cl)cc2)CC1`: 3.26 µM [falling, single point]. With `C/C(=N\OC(=O)c1c(-c2c(F)cccc2Cl)noc1C)c1nccs1`, the AC50 under setting [1] was 6.31 µM [rising, single point]. Same read-out and setting: under `COc1ccc(C)cc1N(C(=O)c1cccc(F)c1)c1nc2ccccc2s1` stands 14.6 µM [falling, single point]; under `N#Cc1ccccc1NC(=O)COc1ccccc1C(=O)Nc1ccccc1`, 1.64 µM [rising, partial curve, poor fit]. For `CCCCN(C(=O)CSc1nc2ccccc2s1)c1c(N)n(CCCC)c(=O)[nH]c1=O`, the AC50 under setting [1] was 13 µM [rising, partial curve, poor fit]. Still for that read-out and setting: under `CCn1c(SCC(=O)Nc2nccs2)nnc1-c1ccccc1` stands 2.06 µM [falling, single point].
